Experimental data taken from PubChem BioAssay AID504834 (National Center for Advancing Translational Sciences (NCATS), 2011).
The campaign covered roughly 320,000 compounds. About 22,000 (6.9%) were called active. Inconclusive results, whose numbers are uncertain, are shown with a selection of clear calls. The call rests on the fitted dose curve; in most records, active means well fitted inhibition curve with a large enough effect; inconclusive means small, poorly fitted or top-dose-only effect, or another doubt; inactive means no such curve, though single readings can be large or run the other way. Where the call is inconclusive, the potency comes from a doubtful curve fit.

Test: Primary qHTS for delayed death inhibitors of the malarial parasite plastid, 96 hour incubation
Conditions: P. falciparum luciferase reporter growth; series mostly up to 28.7 µM
Summary of the method: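 Two parasite generations (96 h, 37 C, 5% CO2) of compound exposure in infected erythrocytes (0.05% parasitemia, 2% hematocrit). Luciferase-reporter P. falciparum; decreased luminescence indicates inhibited growth, aimed at apicoplast-acting delayed death.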
Potency means the concentration at half of the fitted maximal effect.

Row | Compound | Potency
1 | CC(C)CCC(=O)N1CCC(N2CCC(C(=O)NCc3ccccn3)CC2)CC1 | inconclusive: 10.4 µM [inhibitor, single point]
2 | COc1ccc(-c2cc(C(=O)NCC3CCCO3)on2)cc1OC (stereo not drawn) | inconclusive: 16.5 µM [inhibitor, single point]
3 | CCCN(C(=O)CCOc1ccc(C(C)(C)C)cc1)c1c(N)n(Cc2ccccc2)c(=O)[nH]c1=O | inconclusive: 1.47 µM [inhibitor, partial curve, poor fit]
4 | COc1ccc(CN(C)C(=O)Cn2ccc(N)nc2=O)cc1OC | inconclusive: 0.262 µM [inhibitor, partial curve]
5 | CC1CCN(CCCCOc2cccc(Br)c2)CC1 | active: 2.62 µM
6 | O=C(CCn1c(=O)[nH]c2ccsc2c1=O)NCCc1ccc(Cl)cc1 | inconclusive: 0.0738 µM [inhibitor, full curve, poor fit]
7 | O=C(CN1CCN(S(=O)(=O)c2ccccc2)CC1)N1CCCCC1 | inconclusive: 18.5 µM [inhibitor, single point]
8 | CCC1Nc2ncnc(N3CCN(c4ccccn4)CC3)c2N(Cc2ccc(Cl)cc2)C1=O (stereo not drawn) | inconclusive: 5.22 µM [inhibitor, partial curve, poor fit]
9 | O=C(NC1=NCCS1)C1CCCCC1 | inconclusive: 1.04 µM [inhibitor, partial curve, poor fit]
10 | Cn1cc(CC(=O)NC2CCCCC2)c2ccccc21 | inconclusive: 10.4 µM [inhibitor, single point]
11 | COC(=O)C1=C(c2ccc(F)cc2F)C[C@@H]2CC[C@H]1N2C(=O)N1CCC(O)(c2ccc(Cl)cc2)CC1 | inconclusive: 2.94 µM [inhibitor, full curve]
12 | Cc1ccc(-n2ncc3c2CC(C)(C)CC3NC(=O)Cc2c(C)noc2C)cc1 (stereo not drawn) | inactive
13 | CCOc1ccc(/C=N/NC(=S)Nc2c(C)cccc2C)cc1 | active: 2.62 µM
14 | CCCN(CCC)C(C)C(=O)NCC1(c2ccccc2)CCCC1 (stereo not drawn) | inactive
15 | C/C(=N\NC(=S)NCc1ccccc1)C1CCCCC1 | active: 6.57 µM
16 | CCCc1ccc(-c2c(C)sc(N)c2C#N)cc1 | inconclusive: 13.1 µM [inhibitor, single point]
17 | CCOc1cccc(-c2cc(C(=O)Nc3ccon3)c3ccccc3n2)c1 | inactive
18 | COc1cccc(C2=NOC(C(=O)NCc3ccco3)C2)c1 (stereo not drawn) | inconclusive: 4.15 µM [inhibitor, full curve, poor fit]
19 | CN(C)S(=O)(=O)N1CCN(CC(=O)Nc2ccc(Br)cc2)CC1 | active: 5.22 µM
20 | O=C(Nc1cccc(-c2nn[nH]n2)c1)c1ccc(Br)s1 | inconclusive: 13.1 µM [inhibitor, single point]
21 | O=c1[nH]oc2cc(Cl)ccc12 | inactive
22 | C1CCC(Nc2nnnn2C2CCCCC2)CC1 | inactive
23 | Cc1ccc(Cn2cc(CCC(=O)O)c3ccccc32)cc1 | active: 4.65 µM
24 | CCN(CC)CC(=O)c1c(N)n(Cc2ccccc2)c(=O)n(C)c1=O | inactive
25 | COc1cc(OC)cc(C(=O)OCC(=O)NCCCc2ccccc2)c1 | inactive

An excerpt from above in order of heavy-atom count, low to high:
Row | Compound | Potency
9 | O=C(NC1=NCCS1)C1CCCCC1 | inconclusive: 1.04 µM [inhibitor, partial curve, poor fit]
15 | C/C(=N\NC(=S)NCc1ccccc1)C1CCCCC1 | active: 6.57 µM
14 | CCCN(CCC)C(C)C(=O)NCC1(c2ccccc2)CCCC1 (stereo not drawn) | inactive
25 | COc1cc(OC)cc(C(=O)OCC(=O)NCCCc2ccccc2)c1 | inactive

Remaining list, next part.

Row | Compound | Potency
26 | O=S(=O)(c1ccc(F)cc1)N1CCN(CCc2ccccc2)CC1 | inconclusive: 18.5 µM [inhibitor, single point]
27 | CC1CC(=O)Nc2ccccc2N1S(=O)(=O)c1ccc(F)cc1F (stereo not drawn) | inconclusive: 3.7 µM [inhibitor, single point]
28 | NNC(=O)c1cc2c(s1)CCCCCC2 | inconclusive: 14.7 µM [inhibitor, partial curve, poor fit]
29 | COc1cc(NC(C)=O)ccc1-c1cc2ccccc2oc1=O | inactive
30 | NC(=O)N/N=C/c1cn(-c2ccccc2)nc1-c1cccs1 | inconclusive: 18.5 µM [inhibitor, single point]
31 | COc1ccc(C2=NCN(c3ccc(C)cc3)C(=S)N2)cc1 | inactive
32 | CC(Oc1cccc(Cl)c1)c1ccnc2nc(/N=C/N(C)C)nn12 (stereo not drawn) | inconclusive: 11.7 µM [inhibitor, partial curve, poor fit]
33 | CCOc1cc(C(=S)N2CCOCC2)ccc1OS(=O)(=O)c1ccc(OC)cc1 | inconclusive: 18.5 µM [inhibitor, single point]
34 | C=C(C)CN1CCN(S(=O)(=O)c2ccc(C)c(N(C)S(=O)(=O)c3ccc(C)cc3)c2C)CC1 | inactive
35 | O=c1cc2ncc(-c3[nH]ncc3[N+](=O)[O-])cn2[nH]1 | inconclusive: 16.5 µM [inhibitor, single point]
36 | COc1ccccc1N(Cc1cc(=O)[nH]c2ccccc12)C(C)=O | inactive
37 | Cc1oc(-c2ccccc2Cl)nc1CN1C(=O)CN=C(c2ccccc2)c2ccccc21 | inconclusive: 14.7 µM [inhibitor, single point]
38 | CC(C)Oc1cccc(C(=O)NC(=S)NCc2cccnc2)c1 | inconclusive: 18.5 µM [inhibitor, single point]
39 | O=C(CSc1ccccc1)N1CCN(S(=O)(=O)c2cccs2)CC1 | inconclusive: 18.5 µM [inhibitor, single point]
40 | CCCS(=O)(=O)N1CCC(C(=O)NCCN(C)Cc2ccccc2)CC1 | active: 14.7 µM
41 | CC(C)N1C(=O)NC(=O)C2(Cc3cc([N+](=O)[O-])ccc3N(C)C2c2ccccc2)C1=O (stereo not drawn) | active: 11.7 µM
42 | CC1CCN(S(=O)(=O)c2ccc3c(c2)N(CC(=O)NCCCN2CCCC(C)C2)C(=O)CO3)CC1 (stereo not drawn) | active: 11.7 µM
43 | Cc1ccc(C(=O)N2CCCC(C(F)(F)F)C2)cc1S(=O)(=O)N1CCCCC1 (stereo not drawn) | inconclusive: 11.7 µM [inhibitor, partial curve]
44 | O=c1[nH]c(C2CCCN(S(=O)(=O)c3ccccc3)C2)nc2c1nnn2Cc1ccc2c(c1)OCCO2 (stereo not drawn) | inconclusive: 5.22 µM [inhibitor, partial curve]
45 | CCCCCC/C(=N/O)c1ccccn1 | inconclusive: 3.7 µM [inhibitor, partial curve]
46 | CC(C)(C)c1ccc(C(=O)CSc2n[nH]c(=O)[nH]c2=O)cc1 | inactive
47 | S=C(Nc1ccccc1)N1CCC(Cc2ccccc2)CC1 | inconclusive: 11.7 µM [inhibitor, single point]
48 | Cc1ccc(NS(=O)(=O)c2ccc3c(c2)NC(=O)CO3)c(C)c1 | inconclusive: 1.85 µM [inhibitor, partial curve, poor fit]
49 | CCN(CC)S(=O)(=O)c1ccc(/C(O)=C(\C#N)c2nc3ccccc3n2C)cc1 | active: 0.262 µM
50 | CCCn1nc(C(=O)NCC(C)(C)N2CCOCC2)c2ccccc2c1=O | inconclusive: 4.15 µM [inhibitor, single point]

Row | Compound | Potency
51 | CCSc1nnc(Cn2c(=O)sc3ccccc32)n1-c1ccc(OC)cc1 | inconclusive: 18.5 µM [inhibitor, single point]
52 | O=C(NCCSc1c[nH]c2ccccc12)c1ccco1 | inconclusive: 9.28 µM [inhibitor, partial curve, poor fit]
53 | O=C1NS(=O)c2cc([N+](=O)[O-])cc([N+](=O)[O-])c21 (stereo not drawn) | inactive
54 | CN1CCN(C(=O)c2c(NC(=O)c3ccco3)sc3c2CCC(C(C)(C)C)C3)CC1 (stereo not drawn) | inconclusive: 3.7 µM [inhibitor, full curve]
55 | COCCNC(=O)COc1ccc(C)c(C)c1 | inactive
56 | COc1ccc(C(=O)N2CCC3(CC2)NCCc2[nH]cnc23)cc1 | inactive
57 | CCOc1ccccc1NC(=O)c1cc(CC(C)C)oc1C | inactive
58 | O=C(Nn1cnnc1)c1ccc(Cl)c([N+](=O)[O-])c1 | inactive
59 | COC(=O)c1cc(S(=O)(=O)NCc2ccccc2OC)cn1C | inconclusive: 18.5 µM [inhibitor, single point]
60 | O=c1c(-c2nc3ccccc3s2)cccn1Cc1ccccc1 | inactive
61 | Cc1ccc(-c2ccccc2[C@@H]2C[C@H]3CN(C)C(=O)[C@]34CCCN24)o1 | inactive
62 | CCn1cc(S(=O)(=O)Nc2ccc3c(c2)OCCO3)cn1 | inactive
63 | CCOc1cc(/C=N/NC(=O)c2ccncc2)ccc1OC(=O)c1ccccc1 | inactive
64 | CC1CC(C)CN(C(=O)C2CCC(CNc3c(N4CCCCC4)c(=O)c3=O)CC2)C1 (stereo not drawn) | inconclusive: 5.86 µM [inhibitor, single point]
65 | CCOC(=O)Cc1cnc(NC(=O)CSc2nc(C(C)C)cc(=O)[nH]2)s1 | inconclusive: 3.29 µM [inhibitor, full curve]
66 | Cc1cccc2c(C(=O)Nc3ccc(Br)cc3)cc(-c3ccccn3)nc12 | inconclusive: 18.5 µM [inhibitor, single point]
67 | COc1cc(O)c(C(CC(=O)N2CCCCC2)c2cc(OC)c(OC)c(OC)c2)c(OC)c1 (stereo not drawn) | inconclusive: 18.5 µM [inhibitor, single point]
68 | Cc1oc(-c2ccc(Cl)cc2)nc1CN1CCC(C(=O)N2CCN(Cc3ccccc3)CC2)CC1 | inactive
69 | C=CCOc1ccccc1C1C2=C(CC(C)(C)CC2=O)Nc2c1c(=O)n(C)c(=O)n2C (stereo not drawn) | inconclusive: 4.15 µM [inhibitor, partial curve, poor fit]
70 | CC1CCCN(C(=O)C2CC(=O)N(c3ccc(Cl)cc3)C2)C1 (stereo not drawn) | inconclusive: 0.928 µM [inhibitor, full curve, poor fit]
71 | COC(=O)C1=C(c2ccc(Cl)c(C(F)(F)F)c2)C[C@@H]2CC[C@H]1N2C(=O)NCCOc1ccccc1 | active: 4.65 µM
72 | O=C(NCc1ccc2c(c1)OCO2)c1cc2ncc(Br)cn2n1 | inconclusive: 18.5 µM [inhibitor, single point]
73 | COC(=O)c1sc(NC(=O)C2c3ccccc3Oc3ccccc32)c(C(=O)OC)c1C | active: 10.4 µM
